Results deposited as PubChem BioAssay AID1259254 (NCATS, 2017).
In all, the deposit lists about 59,000 reagents; below is a part drawn at random. In the full data, about 1,550 (2.6%) were called active. 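G2 share is only a proxy for re-replication; each gene was hit by three separate siRNAs, and active genes were retested.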 The numbers tell different reagents against one gene apart. Further read-outs or replicates are left out here. The record does not give: the amount of reagent.

Purpose: 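Genome-wide screen for genes that prevent DNA re-replication in cancer cells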 (primary screen)
System: human HCT116 colorectal cancer cells
Reagents: single siRNA against human genes
Time to read-out: 3 days
Measured: 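Imaged Hoechst DNA stain sorts each cell into a cycle phase by DNA amount; per plate, G2 fraction set to 0% for non-targeting and 100% for GMNN siRNA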
Reading the numbers: G2 robust z-score: higher = more G2 cells, more excess DNA replication
Hit rule: 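An siRNA counts as active if its G2 robust z-score lies at least 5 MADs above the screen median; here such calls match roughly 38% of GMNN control or more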

For IL18BP (interleukin 18 binding protein) #1, the entry reads G2 robust z-score -0.534; inactive.
With knock-down of IL18BP (interleukin 18 binding protein) #2, the screen gave G2 robust z-score 0.04; inactive.
For IL18BP (interleukin 18 binding protein) #3 the deposit lists G2 robust z-score 2.9; inactive.
LGI4 (leucine rich repeat LGI family member 4) #1 showed G2 robust z-score 0.16; inactive.
Against LGI4 (leucine rich repeat LGI family member 4) #2, the entry reads G2 robust z-score -0.864; inactive.
After knock-down of LGI4 (leucine rich repeat LGI family member 4) #3, the record shows G2 robust z-score 1.03; inactive.
After knock-down of UBE2J1 (ubiquitin conjugating enzyme E2 J1) #1, the screen gave G2 robust z-score -0.118; inactive.
With knock-down of UBE2J1 (ubiquitin conjugating enzyme E2 J1) #2 the results were G2 robust z-score 2.27; inactive.
UBE2J1 (ubiquitin conjugating enzyme E2 J1) #3 scored G2 robust z-score 3.41; inactive.
Against GABRB3 (gamma-aminobutyric acid type A receptor subunit beta3) #1, the values are G2 robust z-score 0.653; inactive.
Against GABRB3 (gamma-aminobutyric acid type A receptor subunit beta3) #2 the deposit lists G2 robust z-score 0.0318; inactive.
GABRB3 (gamma-aminobutyric acid type A receptor subunit beta3) #3 gave G2 robust z-score 4.81; inactive.

2 neighbouring reagents from above, for reference:
IL18BP (interleukin 18 binding protein) #2 → G2 robust z-score: 0.04; activity call: inactive
IL18BP (interleukin 18 binding protein) #3 → G2 robust z-score: 2.9; activity call: inactive
